Structures were worked out from names or drawings and are uncertain.
The compounds below were run against c-Met (Homo sapiens, UniProt P08581) (assay: Ki determination for the inhibition of c-Met kinase activity (standard coupled enzyme system)). Conditions: read-out: c-Met Ki, 200 μM ATP, 10 μM polyGluTyr, 80 nM c-Met, 30° C.

The chains behind the UniProt entries cited, without tags or fusion partners. Residues count along the entry.
UniProt P08581, 25-1390 limits assumed: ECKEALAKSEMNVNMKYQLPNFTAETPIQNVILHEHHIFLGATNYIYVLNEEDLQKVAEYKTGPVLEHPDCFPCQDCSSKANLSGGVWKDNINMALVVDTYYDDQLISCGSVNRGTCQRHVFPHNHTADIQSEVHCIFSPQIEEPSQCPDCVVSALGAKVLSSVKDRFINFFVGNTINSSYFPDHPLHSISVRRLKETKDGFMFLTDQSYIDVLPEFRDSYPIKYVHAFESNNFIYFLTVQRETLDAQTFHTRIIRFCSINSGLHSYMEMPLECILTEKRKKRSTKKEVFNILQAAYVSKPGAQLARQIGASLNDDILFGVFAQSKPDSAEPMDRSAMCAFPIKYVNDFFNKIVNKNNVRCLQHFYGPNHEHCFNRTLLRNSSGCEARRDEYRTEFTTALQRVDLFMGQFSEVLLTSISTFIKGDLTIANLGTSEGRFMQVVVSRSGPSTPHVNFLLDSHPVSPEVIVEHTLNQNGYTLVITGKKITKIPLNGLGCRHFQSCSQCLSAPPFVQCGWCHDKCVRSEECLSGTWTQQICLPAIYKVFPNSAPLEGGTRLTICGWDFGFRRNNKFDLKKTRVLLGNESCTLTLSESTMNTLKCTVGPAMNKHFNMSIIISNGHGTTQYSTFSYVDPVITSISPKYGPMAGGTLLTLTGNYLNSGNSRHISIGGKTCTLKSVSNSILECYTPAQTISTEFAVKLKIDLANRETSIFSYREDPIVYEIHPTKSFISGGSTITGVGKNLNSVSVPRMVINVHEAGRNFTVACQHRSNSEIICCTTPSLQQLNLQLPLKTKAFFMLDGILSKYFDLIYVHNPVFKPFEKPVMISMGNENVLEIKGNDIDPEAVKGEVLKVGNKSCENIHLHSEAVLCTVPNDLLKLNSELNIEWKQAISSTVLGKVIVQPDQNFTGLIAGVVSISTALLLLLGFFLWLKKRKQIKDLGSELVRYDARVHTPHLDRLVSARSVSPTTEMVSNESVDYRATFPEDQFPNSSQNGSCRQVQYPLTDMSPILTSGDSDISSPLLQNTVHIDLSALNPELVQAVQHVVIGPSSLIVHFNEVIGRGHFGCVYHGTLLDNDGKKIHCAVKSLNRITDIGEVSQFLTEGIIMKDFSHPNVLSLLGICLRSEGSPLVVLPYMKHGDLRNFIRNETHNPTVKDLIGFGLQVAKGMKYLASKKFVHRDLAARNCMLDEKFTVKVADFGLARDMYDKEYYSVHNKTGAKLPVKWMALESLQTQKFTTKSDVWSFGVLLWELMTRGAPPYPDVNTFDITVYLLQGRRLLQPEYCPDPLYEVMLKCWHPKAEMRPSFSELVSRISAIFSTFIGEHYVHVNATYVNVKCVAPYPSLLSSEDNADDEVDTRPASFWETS

Compound	Ki [µM]
Oc1ccc(Cc2nnc3sc(Nc4cccc(C(F)(F)F)c4)nn23)cc1F	< 0.1
Cc1cccc(Nc2nn3c(CCc4ccc(O)cc4)nnc3s2)c1	0.1 to 2
Cc1cccc(Nc2nn3c(Cc4ccc(O)c(Cl)c4)nnc3s2)c1	> 2
Fc1ccc(Nc2nn3c(Cc4ccc5c(c4)OCO5)nnc3s2)cc1Cl	< 0.1
FC(F)(F)c1cccc(Nc2nn3c(Cc4ccc5c(c4)OCO5)nnc3s2)c1	< 0.1
Oc1ccc(Cc2nnc3sc(Nc4cccc(C(F)(F)F)c4)nn23)cc1Cl	0.1 to 2
Cc1cccc(Nc2nn3c(Cc4ccc(O)c(F)c4)nnc3s2)c1	< 0.1
COc1ccc(C(C)c2nnc3sc(Nc4ccc(Cl)cc4)nn23)cc1 (stereo not shown)	< 0.1

More lines, now with the values ahead:

Ki [µM]	Compound
< 0.1	CC(c1ccc(O)cc1)c1nnc2sc(Nc3cccc(C(F)(F)F)c3)nn12 (stereo not shown) [Compound 138]
0.1 to 2	Oc1ccc(Cc2nnc3sc(Nc4ccc(F)c(Cl)c4)nn23)cc1
< 0.1	Cc1cccc(Nc2nn3c(Cc4ccc5c(c4)OCO5)nnc3s2)c1
< 0.1	C[C@H](c1ccc(O)cc1)c1nnc2sc(Nc3ccc(F)c(Cl)c3)nn12
0.1 to 2	Oc1cccc(CCc2nnc3sc(Nc4cccc(C(F)(F)F)c4)nn23)c1
0.1 to 2	Cc1cccc(Nc2nn3c(Cc4cccc(O)c4)nnc3s2)c1
< 0.1	C[C@@H](c1ccc(O)cc1)c1nnc2sc(Nc3cccnc3)nn12
< 0.1	Oc1ccc(CCc2nnc3sc(Nc4cccc(C(F)(F)F)c4)nn23)cc1
